Test results as given in PMC4129401.
Results are given in words; binding and its absence hold for the method and conditions named. In cells and extracts the contact can be indirect. Some binding calls cover weakened binding; strength is not graded here. For some assays here: Tags and fused reporters may be left off the sequences shown.

T1: 3×FLAG-FAM161A (full-length) (human) (UniProt Q3B820)
T1 sequence: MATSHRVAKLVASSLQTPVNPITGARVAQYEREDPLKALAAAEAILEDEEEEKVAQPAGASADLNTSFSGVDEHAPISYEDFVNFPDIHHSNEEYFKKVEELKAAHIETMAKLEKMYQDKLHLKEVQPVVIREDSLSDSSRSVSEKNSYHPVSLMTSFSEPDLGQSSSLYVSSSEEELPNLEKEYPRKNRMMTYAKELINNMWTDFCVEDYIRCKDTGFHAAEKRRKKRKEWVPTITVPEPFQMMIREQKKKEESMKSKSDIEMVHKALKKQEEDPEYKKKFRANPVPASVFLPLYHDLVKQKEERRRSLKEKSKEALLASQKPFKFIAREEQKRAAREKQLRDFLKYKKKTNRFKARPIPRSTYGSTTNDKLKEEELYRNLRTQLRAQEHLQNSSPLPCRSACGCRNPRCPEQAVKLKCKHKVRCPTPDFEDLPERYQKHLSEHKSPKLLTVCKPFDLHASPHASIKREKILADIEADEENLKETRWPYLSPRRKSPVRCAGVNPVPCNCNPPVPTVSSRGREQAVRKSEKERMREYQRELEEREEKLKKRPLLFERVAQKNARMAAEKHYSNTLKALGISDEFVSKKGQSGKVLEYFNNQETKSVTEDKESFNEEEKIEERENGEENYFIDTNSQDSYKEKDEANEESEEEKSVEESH

T2: 3×HA-POC1B-p.Gln67del (human) (UniProt Q8TC44)
T2 sequence: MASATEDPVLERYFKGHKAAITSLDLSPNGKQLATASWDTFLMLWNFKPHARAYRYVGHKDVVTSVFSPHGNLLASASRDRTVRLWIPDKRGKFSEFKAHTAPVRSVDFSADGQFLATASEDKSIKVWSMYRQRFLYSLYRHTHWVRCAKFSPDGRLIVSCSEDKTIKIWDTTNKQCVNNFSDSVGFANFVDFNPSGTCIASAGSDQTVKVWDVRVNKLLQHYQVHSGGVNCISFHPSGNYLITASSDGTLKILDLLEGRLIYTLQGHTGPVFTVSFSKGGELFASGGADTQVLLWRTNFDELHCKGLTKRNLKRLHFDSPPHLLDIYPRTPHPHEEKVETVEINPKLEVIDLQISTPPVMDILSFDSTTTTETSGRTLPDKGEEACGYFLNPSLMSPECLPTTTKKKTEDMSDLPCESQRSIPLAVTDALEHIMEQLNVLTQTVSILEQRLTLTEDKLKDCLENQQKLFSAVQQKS

T3: 3×HA-POC1B wild-type (full-length, 478 amino acids) (human) (UniProt Q8TC44)
T3 sequence: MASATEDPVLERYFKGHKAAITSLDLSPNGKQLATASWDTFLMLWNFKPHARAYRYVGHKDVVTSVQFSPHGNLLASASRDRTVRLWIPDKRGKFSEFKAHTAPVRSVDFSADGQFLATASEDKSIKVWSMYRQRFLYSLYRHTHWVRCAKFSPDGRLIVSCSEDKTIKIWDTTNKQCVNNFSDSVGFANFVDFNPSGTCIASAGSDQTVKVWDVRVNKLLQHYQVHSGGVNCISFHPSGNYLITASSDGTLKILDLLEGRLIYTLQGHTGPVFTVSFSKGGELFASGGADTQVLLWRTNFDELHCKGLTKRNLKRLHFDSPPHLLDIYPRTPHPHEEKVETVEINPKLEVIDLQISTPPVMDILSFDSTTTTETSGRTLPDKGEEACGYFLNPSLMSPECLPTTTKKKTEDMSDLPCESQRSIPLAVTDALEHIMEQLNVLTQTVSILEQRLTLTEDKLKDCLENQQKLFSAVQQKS

T4: 3×HA-POC1B-p.Arg106Pro (human) (UniProt Q8TC44)
T4 sequence: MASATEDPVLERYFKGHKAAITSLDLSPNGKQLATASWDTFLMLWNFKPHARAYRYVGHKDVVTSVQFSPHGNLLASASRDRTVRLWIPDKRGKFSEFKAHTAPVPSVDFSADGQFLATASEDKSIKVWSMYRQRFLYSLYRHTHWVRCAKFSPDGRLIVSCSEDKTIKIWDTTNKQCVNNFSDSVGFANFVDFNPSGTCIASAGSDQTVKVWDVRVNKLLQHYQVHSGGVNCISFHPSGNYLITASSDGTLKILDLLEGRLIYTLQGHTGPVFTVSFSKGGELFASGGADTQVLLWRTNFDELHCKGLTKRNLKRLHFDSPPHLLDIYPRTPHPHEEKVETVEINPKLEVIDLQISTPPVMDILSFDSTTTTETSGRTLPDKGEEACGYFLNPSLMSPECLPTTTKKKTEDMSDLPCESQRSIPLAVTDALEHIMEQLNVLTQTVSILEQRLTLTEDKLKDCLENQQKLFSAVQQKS

T5: nephrocystin-4 (encoded by NPHP4) (UniProt O75161)
T5 sequence: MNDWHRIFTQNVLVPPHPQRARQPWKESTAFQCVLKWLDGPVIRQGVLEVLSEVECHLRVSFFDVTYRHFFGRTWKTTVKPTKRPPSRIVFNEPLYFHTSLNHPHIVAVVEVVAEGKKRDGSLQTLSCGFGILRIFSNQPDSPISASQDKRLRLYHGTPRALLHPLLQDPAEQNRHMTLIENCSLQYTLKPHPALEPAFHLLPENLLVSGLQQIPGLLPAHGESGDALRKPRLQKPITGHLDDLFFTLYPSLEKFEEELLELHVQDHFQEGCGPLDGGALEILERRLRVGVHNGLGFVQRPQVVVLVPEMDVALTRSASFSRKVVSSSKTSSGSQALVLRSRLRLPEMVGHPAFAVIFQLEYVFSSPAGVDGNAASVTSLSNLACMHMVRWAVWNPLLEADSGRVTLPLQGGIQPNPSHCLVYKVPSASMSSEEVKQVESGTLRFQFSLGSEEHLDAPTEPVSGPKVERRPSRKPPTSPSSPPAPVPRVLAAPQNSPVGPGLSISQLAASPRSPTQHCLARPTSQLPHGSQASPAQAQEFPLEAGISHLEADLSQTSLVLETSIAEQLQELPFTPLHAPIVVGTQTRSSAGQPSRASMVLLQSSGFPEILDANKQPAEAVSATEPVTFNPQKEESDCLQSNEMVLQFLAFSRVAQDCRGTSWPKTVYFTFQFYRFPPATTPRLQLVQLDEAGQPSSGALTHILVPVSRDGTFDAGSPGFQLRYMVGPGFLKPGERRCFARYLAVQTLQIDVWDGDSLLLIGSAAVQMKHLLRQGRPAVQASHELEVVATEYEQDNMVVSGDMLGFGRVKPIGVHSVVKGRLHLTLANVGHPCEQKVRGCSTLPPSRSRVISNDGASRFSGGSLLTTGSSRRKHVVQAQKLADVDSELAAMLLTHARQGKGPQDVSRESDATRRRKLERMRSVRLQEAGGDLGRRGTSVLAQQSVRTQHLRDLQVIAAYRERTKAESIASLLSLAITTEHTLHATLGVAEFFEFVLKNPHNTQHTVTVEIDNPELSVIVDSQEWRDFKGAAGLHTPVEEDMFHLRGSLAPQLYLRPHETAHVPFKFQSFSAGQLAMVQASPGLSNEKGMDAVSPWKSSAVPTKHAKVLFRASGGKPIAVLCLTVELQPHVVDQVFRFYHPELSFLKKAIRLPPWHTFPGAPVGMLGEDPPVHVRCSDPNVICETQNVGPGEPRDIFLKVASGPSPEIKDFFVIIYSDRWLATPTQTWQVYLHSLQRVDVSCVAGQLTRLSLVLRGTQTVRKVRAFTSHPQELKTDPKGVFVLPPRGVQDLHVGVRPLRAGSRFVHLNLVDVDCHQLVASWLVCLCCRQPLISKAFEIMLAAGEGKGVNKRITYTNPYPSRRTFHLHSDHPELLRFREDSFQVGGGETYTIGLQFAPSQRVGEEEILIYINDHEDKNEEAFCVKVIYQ


Legend:
Assay in all cases: co-IP; HEK293T cells, cosynthesis for 48 hr; lysis in 50 mM Tris-HCl pH 7.5, 150 mM NaCl, 0.5% Triton X-100; anti-FLAG M2 agarose, 5 hr at 4°C; immunoblot with anti-HA or anti-FLAG
[1] = biological target: T1, 3×FLAG-FAM161A (full-length) (human)
[2] = biological target: T2, 3×HA-POC1B-p.Gln67del (human)
[3] = biological target: T3, 3×HA-POC1B wild-type (full-length, 478 amino acids) (human)
[4] = biological target: T4, 3×HA-POC1B-p.Arg106Pro (human)
[5] = biological target: T5, nephrocystin-4 (encoded by NPHP4)

binding [1] | binding [2] | binding [3] | binding [4] | binding [5] | Binder
no binding | no binding | no binding | no binding | – | p63 (protein, UniProt Q9H3D4 1-680) MNFETSRCATLQYCPDPYIQRFVETPAHFSWKESYYRSTMSQSTQTNEFLSPEVFQHIWDFLEQPICSVQPIDLNFVDEPSEDGATNKIEISMDCIRMQDSDLSDPMWPQYTNLGLLNSMDQQIQNGSSSTSPYNTDHAQNSVTAPSPYAQPSSTFDALSPSPAIPSNTDYPGPHSFDVSFQQSSTAKSATWTYSTELKKLYCQIAKTCPIQIKVMTPPPQGAVIRAMPVYKKAEHVTEVVKRCPNHELSREFNEGQIAPPSHLIRVEGNSHAQYVEDPITGRQSVLVPYEPPQVGTEFTTVLYNFMCNSSCVGGMNRRPILIIVTLETRDGQVLGRRCFEARICACPGRDRKADEDSIRKQQVSDSTKNGDGTKRPFRQNTHGIQMTSIKKRRSPDDELLYLPVRGRETYEMLLKIKESLELMQYLPQHTIETYRQQQQQQHQHLLQKQTSIQSPSSYGNSSPPLNKMNSMNKLPSVSQLINPQQRNALTPTTIPDGMGANIPMMGTHMPMAGDMNGLSPTQALPPPLSMPSTSHCTPPPPYPTDCSIVSFLARLGCSSCLDYFTTQGLTTIYQIEHYSMDDLASLKIPEQFRHAIWKGILDHRQLHEFSSPSHLLRTPSSASTVSVGSSETRGERVIDAVRFTLRQTISFPPRDEWNDFNFDMDARRNKQQRIKEEGE
– | – | – | – | binds | RPGRIP1 (protein, UniProt Q96KN7 1-1286) MSHLVDPTSGDLPVRDIDAIPLVLPASKGKNMKTQPPLSRMNREELEDSFFRLREDHMLVKELSWKQQDEIKRLRTTLLRLTAAGRDLRVAEEAAPLSETARRGQKAGWRQRLSMHQRPQMHRLQGHFHCVGPASPRRAQPRVQVGHRQLHTAGAPVPEKPKRGPRDRLSYTAPPSFKEHATNENRGEVASKPSELVSGSNSIISFSSVISMAKPIGLCMPNSAHIMASNTMQVEEPPKSPEKMWPKDENFEQRSSLECAQKAAELRASIKEKVELIRLKKLLHERNASLVMTKAQLTEVQEAYETLLQKNQGILSAAHEALLKQVNELRAELKEESKKAVSLKSQLEDVSILQMTLKEFQERVEDLEKERKLLNDNYDKLLESMLDSSDSSSQPHWSNELIAEQLQQQVSQLQDQLDAELEDKRKVLLELSREKAQNEDLKLEVTNILQKHKQEVELLQNAATISQPPDRQSEPATHPAVLQENTQIEPSEPKNQEEKKLSQVLNELQVSHAETTLELEKTRDMLILQRKINVCYQEELEAMMTKADNDNRDHKEKLERLTRLLDLKNNRIKQLEGILRSHDLPTSEQLKDVAYGTRPLSLCLETLPAHGDEDKVDISLLHQGENLFELHIHQAFLTSAALAQAGDTQPTTFCTYSFYDFETHCTPLSVGPQPLYDFTSQYVMETDSLFLHYLQEASARLDIHQAMASEHSTLAAGWICFDRVLETVEKVHGLATLIGAGGEEFGVLEYWMRLRFPIKPSLQACNKRKKAQVYLSTDVLGGRKAQEEEFRSESWEPQNELWIEITKCCGLRSRWLGTQPSPYAVYRFFTFSDHDTAIIPASNNPYFRDQARFPVLVTSDLDHYLRREALSIHVFDDEDLEPGSYLGRARVPLLPLAKNESIKGDFNLTDPAEKPNGSIQVQLDWKFPYIPPESFLKPEAQTKGKDTKDSSKISSEEEKASFPSQDQMASPEVPIEAGQYRSKRKPPHGGERKEKEHQVVSYSRRKHGKRIGVQGKNRMEYLSLNILNGNTPEQVNYTEWKFSETNSFIGDGFKNQHEEEEMTLSHSALKQKEPLHPVNDKESSEQGSEVSEAQTTDSDDVIVPPMSQKYPKADSEKMCIEIVSLAFYPEAEVMSDENIKQVYVEYKFYDLPLSETETPVSLRKPRAGEEIHFHFSKVIDLDPQEQQGRRRFLFDMLNGQDPDQGHLKFTVVSDPLDEEKKECEEVGYAYLQLWQILESGRDILEQELDIVSPEDLATPIGRLKVSLQAAAVLHAIYKEMTEDLFS
